PubChem BioAssay AID1259254 | NCATS, 2017

Aim: 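Finding genes that stop cells copying their DNA twice in one cycle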 (primary screen)
System: human HCT116 colorectal cancer cells
Reagent: single siRNA against human genes
Timing: 3 days
Read-out: 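Nuclei stained with Hoechst and imaged; cell-cycle phase assigned by DNA content; G2 share scaled per plate, non-targeting siRNA 0%, GMNN siRNA 100%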
Reading the numbers: G2 robust z-score and G2 cells, % of GMNN control: higher = more G2 cells, more excess DNA replication; raw share of cells in G2: higher = larger share of cells with G2 DNA content
Active means: 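Active siRNAs have a G2 robust z of 5 or more median absolute deviations over the median, which in these data means about 38% or higher of GMNN control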
Here is one part, drawn at random, of about 59,000 reagents tested. About 1,550 of them (2.6%) count as active. 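G2 share is only a proxy for re-replication; each gene was hit by three separate siRNAs, and active genes were retested.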 Raw values vary from plate to plate and are shown uncorrected. The numbers tell different reagents against one gene apart. No sequences are given here. Not stated in the record: the amount of reagent.

| Target gene | reagent no. | G2 robust z-score | G2 cells, % of GMNN control | raw share of cells in G2 (%) | Call |
| --- | --- | --- | --- | --- | --- |
| MTX3 | 1 | -0.52 | -0.693 | 3.91 | inactive |
| MTX3 | 2 | -0.0991 | 2.27 | 4.77 | inactive |
| MTX3 | 3 | 0.501 | 6.49 | 6.1 | inactive |
| STAT4 | 1 | 0.612 | 7.27 | 8.13 | inactive |
| STAT4 | 2 | -0.163 | 1.82 | 5.17 | inactive |
| STAT4 | 3 | 0.317 | 5.2 | 5.68 | inactive |
| MRPS25 | 1 | 0.473 | 6.29 | 7.32 | inactive |
| MRPS25 | 2 | -0.294 | 0.896 | 5.01 | inactive |
| MRPS25 | 3 | -0.168 | 1.79 | 3.17 | inactive |
| BCL6 | 1 | 0.377 | 5.62 | 5.69 | inactive |
| BCL6 | 2 | -0.459 | -0.262 | 4.72 | inactive |
| BCL6 | 3 | 2.89 | 23.3 | 11.6 | inactive |
| MYBPC1 | 1 | 2.4 | 19.8 | 9.74 | inactive |
| MYBPC1 | 2 | -0.346 | 0.532 | 5.68 | inactive |
| MYBPC1 | 3 | 0.991 | 9.94 | 9.2 | inactive |
| DRC7 | 1 | -1.02 | -4.24 | 2.7 | inactive |
| DRC7 | 2 | -1.11 | -4.87 | 2.01 | inactive |
| DRC7 | 3 | -0.383 | 0.274 | 2.49 | inactive |
| PLAT | 1 | 7.72 | 57.3 | 23.4 | active |
| PLAT | 2 | -0.429 | -0.0493 | 4.29 | inactive |
| PLAT | 3 | -0.194 | 1.6 | 3.98 | inactive |
| RAB42P1 | 1 | 0.0942 | 3.63 | 4.57 | inactive |
| RAB42P1 | 2 | 0.0158 | 3.08 | 4.02 | inactive |
| RAB42P1 | 3 | -0.444 | -0.157 | 3.72 | inactive |
| CLCNKA | 1 | -1.22 | -5.64 | 3.24 | inactive |
| CLCNKA | 2 | 3.74 | 29.3 | 14.7 | inactive |
| CLCNKA | 3 | 0.52 | 6.63 | 6.96 | inactive |
| SMTN | 1 | 1.61 | 14.3 | 11 | inactive |
| SMTN | 2 | -0.221 | 1.41 | 4.78 | inactive |
| SMTN | 3 | -0.622 | -1.41 | 2.85 | inactive |
| CCDC91 | 1 | -0.975 | -3.89 | 3.03 | inactive |
| CCDC91 | 2 | 1.27 | 11.9 | 9.06 | inactive |
| CCDC91 | 3 | 2.83 | 22.9 | 10.4 | inactive |
| GNPDA1 | 1 | 1.06 | 10.5 | 9.15 | inactive |
| GNPDA1 | 2 | 5.5 | 41.6 | 21.7 | active |
| GNPDA1 | 3 | 0.342 | 5.38 | 5.03 | inactive |
| IDUA | 1 | 3.66 | 28.7 | 14.7 | inactive |
| IDUA | 2 | -1.08 | -4.62 | 3.93 | inactive |
| IDUA | 3 | -0.639 | -1.53 | 4.49 | inactive |
| ANGPTL3 | 1 | 0.485 | 6.38 | 6.08 | inactive |
| ANGPTL3 | 2 | -0.387 | 0.241 | 6.27 | inactive |
| ANGPTL3 | 3 | -0.748 | -2.29 | 3.43 | inactive |
| TXNDC9 | 1 | -1.06 | -4.49 | 4.71 | inactive |
| TXNDC9 | 2 | 1.03 | 10.2 | 7.15 | inactive |
| TXNDC9 | 3 | 2.52 | 20.7 | 14.7 | inactive |
| CXCR4 | 1 | 0.254 | 4.76 | 7.54 | inactive |
| CXCR4 | 2 | 0.706 | 7.94 | 7.29 | inactive |
| CXCR4 | 3 | -0.625 | -1.43 | 2.83 | inactive |

Records above whose target name starts with D or d:
| Target gene | reagent no. | G2 robust z-score | G2 cells, % of GMNN control | raw share of cells in G2 (%) | Call |
| --- | --- | --- | --- | --- | --- |
| DRC7 | 1 | -1.02 | -4.24 | 2.7 | inactive |
| DRC7 | 2 | -1.11 | -4.87 | 2.01 | inactive |
| DRC7 | 3 | -0.383 | 0.274 | 2.49 | inactive |
